{
  "sequences": {"note": "Chains of the proteins cited; added tags and fusions are not shown.", "UniProt P18054, whole entry, looked up": "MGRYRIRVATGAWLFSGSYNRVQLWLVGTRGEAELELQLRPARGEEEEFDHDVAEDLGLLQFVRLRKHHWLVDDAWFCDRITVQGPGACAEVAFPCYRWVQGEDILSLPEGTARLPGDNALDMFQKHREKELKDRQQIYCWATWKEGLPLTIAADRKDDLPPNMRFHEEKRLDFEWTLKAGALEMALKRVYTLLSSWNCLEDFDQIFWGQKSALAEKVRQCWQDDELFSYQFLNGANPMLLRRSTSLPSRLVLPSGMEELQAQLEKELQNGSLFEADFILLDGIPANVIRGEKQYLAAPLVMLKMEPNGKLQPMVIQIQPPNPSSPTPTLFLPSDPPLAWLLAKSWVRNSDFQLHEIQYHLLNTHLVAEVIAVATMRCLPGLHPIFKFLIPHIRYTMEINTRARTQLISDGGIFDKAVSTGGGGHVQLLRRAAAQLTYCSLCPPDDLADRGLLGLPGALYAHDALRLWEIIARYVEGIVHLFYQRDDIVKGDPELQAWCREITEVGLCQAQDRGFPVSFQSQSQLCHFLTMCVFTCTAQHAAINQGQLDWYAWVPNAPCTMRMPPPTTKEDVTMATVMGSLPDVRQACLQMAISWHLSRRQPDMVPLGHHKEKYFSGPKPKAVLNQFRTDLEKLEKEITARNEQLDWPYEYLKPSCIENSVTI"},
  "source": "PubChem BioAssay AID1671190",
  "about": "(National Center for Advancing Translational Sciences (NCATS), 2021)",
  "note": "Several values for one entry are separate records, joined by “and”; a condition that tells them apart may be missing. Equal values may be shown once. The whole screen tested about 580,000 compounds, of which about 6,100 (1.1%) were called active. Inconclusive means that the source gave no clear call. Such entries were picked first, then a sample of the others. The call rests on the fitted dose curve; in most records, active means well fitted inhibition curve with a large enough effect; inconclusive means small, poorly fitted or top-dose-only effect, or another doubt; inactive means no such curve, though single readings can be large or run the other way. A potency beside an inconclusive call is a rough fit, not a confirmed value. On the % scale 0 is the no-effect control and ±100 the full control effect; potency means the concentration at half of the fitted maximal effect.",
  "data": [
    {"molecular_target": "Polyunsaturated fatty acid lipoxygenase ALOX12 (Homo sapiens) (UniProt P18054)", "assay": "Primary qHTS assay for inhibitors of human arachidonate 12S-lipoxygenase (ALOX12): Round 2", "details": "purified 12hLO, xylenol orange hydroperoxide absorbance; activity change, negative = inhibition: at 108 µM (top of the series) unless noted", "method_in_brief": "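Purified human 12hLO (150 nM final) in 25 mM Hepes, 0.01% Triton X-100, pH 7.0 was preincubated 15 min at room temperature with compound. Then 40 uM arachidonic acid was added, 30 min. Hydroperoxide was read by Fe-XO absorbance ratio 573/405 nm.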", "values": [
      {"smiles": "CC(C(=O)Nc1cccnc1)c1ccc([N+](=O)[O-])cc1", "note": "(centres undefined)", "Potency": "inactive"},
      {"smiles": "COc1ccc(-c2cc(-c3ccc(F)cc3)cn3cncc23)cc1", "Potency": "inconclusive: 1.78 µM [inhibitor, full curve, poor fit]"},
      {"smiles": "Cc1ccc(NC(=O)Nc2ccc3nc(N4CCN(C)CC4)cc(C)c3c2)cc1F", "Potency": "inconclusive: 50.1 µM [inhibitor, partial curve, poor fit]"},
      {"smiles": "CSc1cccc(NC(=O)C2CCCN(C(=O)c3cnn(-c4ccc(F)cc4)c3-n3cccc3)C2)c1", "note": "(centres undefined)", "Potency": "inactive"},
      {"smiles": "Cc1ccc(S(=O)(=O)N2CCC(=O)N(CCOCc3cccc(C(F)(F)F)c3)CC2)cc1", "Potency": "inconclusive: 126 µM [inhibitor, partial curve, poor fit]"},
      {"smiles": "S=C1NC[C@H](Cc2ccccc2)N1CCc1cccc2ccccc12", "Potency": "inconclusive: 44.7 µM [inhibitor, partial curve, poor fit]"},
      {"smiles": "Cc1cc(SSc2nc(C)cc(C)n2)nc(C)n1", "Potency": "inconclusive: 7.08 µM [inhibitor, partial curve, poor fit]"},
      {"smiles": "CCOC(=O)C1C(C)=C/C(=N\\O)CC1C(C)C", "note": "(centres undefined)", "Potency": "inactive"},
      {"smiles": "COc1ccc(C2=NN(C(C#N)c3ccc(OC)cc3)C(c3ccccc3)C2)cc1", "note": "(centres undefined)", "Potency": "inconclusive: 3.98 µM [inhibitor, full curve, poor fit]"},
      {"smiles": "Cc1noc(C)c1CC(=O)N1Cc2ccccc2OC2(CCN(C(=O)NC(C)C)CC2)C1", "activity change, negative = inhibition": "inactive: -4.75% [at 6.33 µM]"},
      {"smiles": "O=c1cc(-c2ccccc2)[nH]n2cnnc12", "Potency": "inconclusive: 70.8 µM [inhibitor, partial curve, poor fit]"},
      {"smiles": "CC(c1ccco1)N(C(=O)c1ccc(C(F)(F)F)cc1)c1ccccn1", "note": "(centres undefined)", "Potency": "inactive"},
      {"smiles": "Cc1cc(C)c(C#N)c(SCc2ccc(C(=O)O)cc2)n1", "Potency": "inactive"},
      {"smiles": "COc1ccc(-c2nc(C(=O)N3CCN(C)CC3)sc2-c2ccc(OC)cc2)cc1", "Potency": "inconclusive: 25.1 µM [inhibitor, partial curve, poor fit]"},
      {"smiles": "COc1cc(/C=C2\\C(=O)ON=C2c2ccccc2)cc(Br)c1O", "Potency": "inconclusive: 5.01 µM [inhibitor, full curve, poor fit]"},
      {"smiles": "O=C(CN(Cc1ccccc1Cl)S(=O)(=O)c1ccc(Cl)cc1)N/N=C/c1ccc(C(=O)O)cc1", "Potency": "inconclusive: 79.4 µM [inhibitor, partial curve, poor fit]"},
      {"smiles": "CC(C)(C)c1ccc(C(=O)NC2(C(F)(F)F)NC(=O)N(CCc3ccccc3)C2=O)cc1", "note": "(centres undefined)", "Potency": "inconclusive: 44.7 µM [inhibitor, partial curve, poor fit]"},
      {"smiles": "FC(F)(F)c1ccc(-c2ncc[nH]2)cc1", "Potency": "inactive"},
      {"smiles": "CCCNS(=O)(=O)c1ccc(CCC(=O)NCc2ccco2)cc1", "Potency": "inconclusive: 56.2 µM [inhibitor, partial curve, poor fit]"},
      {"smiles": "COc1ccc(CN2CCC(C)CC2)cc1", "Potency": "inactive"},
      {"smiles": "O=[N+]([O-])c1cccc(CN2CCN(S(=O)(=O)Cc3ccccc3)CC2)c1", "Potency": "inconclusive: 0.708 µM [inhibitor, full curve]"},
      {"smiles": "O=C(O)Cc1ccc(NS(=O)(=O)c2ccccc2Cl)cc1", "Potency": "inconclusive: 35.5 µM [inhibitor, full curve, poor fit]"},
      {"smiles": "COc1ccc(CNC(C)=O)cc1", "Potency": "inactive"},
      {"smiles": "COc1cc(NS(=O)(=O)c2ccc(NC(=S)NC(=O)CC(C)C)cc2)nc(OC)n1", "Potency": "inconclusive: 50.1 µM [inhibitor, partial curve, poor fit]"},
      {"smiles": "O[C@H]1[C@H](NCc2ccncc2)[C@H]2CO[C@H](O2)[C@@H]1N1CCN(c2ccccc2)CC1", "Potency": "inactive"},
      {"smiles": "C[C@]1(CO)[C@H]2Cc3sc(NC(=O)c4ccnc(Cl)c4)nc3[C@@H](CC(=O)O)[C@]2(C)CC[C@H]1O", "Potency": "inconclusive: 8.91 µM [inhibitor, full curve]"},
      {"smiles": "Cc1ccc(C2c3c(oc4ccccc4c3=O)C(=O)N2CCCN2CCOCC2)o1", "note": "(centres undefined)", "Potency": "inconclusive: 10 µM [inhibitor, partial curve, poor fit]"},
      {"smiles": "COc1cc(C(=O)Nc2sc(C)c(C)c2C(=O)O)cc(OC)c1OC", "Potency": "inconclusive: 7.08 µM [inhibitor, single point]"},
      {"smiles": "O=C(OCCN1CCOCC1)c1ccc2c(c1)OCCO2", "Potency": "inconclusive: 44.7 µM [inhibitor, partial curve]"},
      {"smiles": "OC(c1ccccc1)(c1nc(/C=C/c2ccccc2)cs1)C(F)(F)F", "note": "(centres undefined)", "Potency": "inconclusive: 39.8 µM [inhibitor, partial curve, poor fit]"},
      {"smiles": "CCC(=O)N1Cc2cc(C(=O)N(C)C)nc(-c3cccc(-c4cncnc4)c3)c2[C@@H]1CCO", "Potency": "inactive"},
      {"smiles": "O=C(CCNS(=O)(=O)/C=C/c1ccccc1)Nc1ccc(Cl)cc1Cl", "Potency": "inconclusive: 112 µM [inhibitor, single point]"},
      {"smiles": "COc1ccc2nc(NC(=O)c3cccc(OCc4c(C)noc4C)c3)sc2c1", "Potency": "inactive"},
      {"smiles": "C/C(=N\\N1CCN(Cc2ccccc2Cl)CC1)c1ccc(F)cc1", "Potency": "inconclusive: 112 µM [inhibitor, single point]"},
      {"smiles": "COc1ccccc1-c1cc(NC(C)=O)c2ncc(-c3cccc(C(C)=O)c3)n2c1", "Potency": "inconclusive: 112 µM [inhibitor, single point]"},
      {"smiles": "CC(C)CNS(=O)(=O)CC1NCc2ccccc21", "note": "(centres undefined)", "Potency": "inconclusive: 31.6 µM [inhibitor, partial curve, poor fit]"},
      {"smiles": "CC1=CC(=O)Nc2ncccc2O1", "Potency": "inconclusive: 0.224 µM [inhibitor, full curve, poor fit]"},
      {"smiles": "COC(=O)c1ccc(CNC(=O)C2CCC(=O)N(CCc3ccccn3)C2)cc1", "note": "(centres undefined)", "Potency": "inactive"},
      {"smiles": "CCc1c(C)sc(NC(=O)CC#N)c1C#N", "Potency": "inconclusive: 20 µM [inhibitor, partial curve]"},
      {"smiles": "CCN1/C(=C/c2sc(-c3ccccc3C)c[n+]2C)Sc2ccccc21", "Potency": "inconclusive: 50.1 µM [inhibitor, partial curve, poor fit]"},
      {"smiles": "CN1CCC(N[C@H]2C[C@@H](Cc3cc(-c4ccc(F)cc4)on3)C2(C)C)CC1", "Potency": "inconclusive: 25.1 µM [inhibitor, full curve, poor fit]"},
      {"smiles": "Oc1ccccc1Nc1ccccn1", "Potency": "inconclusive: 100 µM [inhibitor, single point]"},
      {"smiles": "CN1CCN(CCNC(=O)c2cc(-c3ccccc3)cn2C)CC1", "Potency": "inconclusive: 7.94 µM [inhibitor, full curve, poor fit]"},
      {"smiles": "CCOC(=O)c1c(NC(=O)C(NCCN(C)C)c2ccccc2)sc2c1CCCC2", "note": "(centres undefined)", "Potency": "inconclusive: 89.1 µM [inhibitor, single point]"},
      {"smiles": "CCCCCC(=O)N1C[C@@H](n2cc(C3CC3)nn2)[C@H](O)C[C@@H]1c1ccc(C)cc1", "Potency": "inconclusive: 39.8 µM [inhibitor, partial curve, poor fit]"},
      {"smiles": "Cc1ccc(S(=O)(=O)Nc2ccc3nc(C)sc3c2)c(C)c1", "Potency": "inconclusive: 44.7 µM [inhibitor, partial curve, poor fit] and inconclusive: 79.4 µM [inhibitor, partial curve, poor fit]"},
      {"smiles": "CCN(CC)CCNc1nc2c(c(=O)[nH]c(=O)n2C)n1CC(O)COc1ccc(Cl)cc1Cl", "note": "(centres undefined)", "Potency": "inconclusive: 20 µM [inhibitor, partial curve, poor fit]"},
      {"smiles": "CC(C)(C)c1ccc(Cc2n[nH]c(=S)[nH]c2=O)cc1", "Potency": "active: 15.8 µM"},
      {"smiles": "CCCCOc1cccc(C(=O)Nc2ccc(N3CCN(CC)CC3)cc2)c1", "Potency": "inconclusive: 25.1 µM [inhibitor, partial curve, poor fit]"},
      {"smiles": "COc1ccc(N2CCN(C(=O)c3cccs3)CC2)cc1", "Potency": "inconclusive: 44.7 µM [inhibitor, single point]"},
      {"smiles": "O=C(Nc1cccc(C(F)(F)F)c1)C1=CCN(Cc2ccccc2F)CC1", "Potency": "inconclusive: 35.5 µM [inhibitor, partial curve, poor fit]"},
      {"smiles": "Cc1ccc([C@H]2C(C(=O)O)=CC[C@@H](c3cccc(Cl)c3)N2S(=O)(=O)c2ccc(C)cc2)cc1", "Potency": "inconclusive: 0.501 µM [inhibitor, full curve, poor fit]"},
      {"smiles": "CC(C)c1nc2c(c(-c3ccc(O)cc3)n1)CN(Cc1cccc3ccccc13)CC2", "Potency": "inconclusive: 8.91 µM [inhibitor, full curve]"},
      {"smiles": "CCc1ccc(-c2nc(CS(=O)CC(=O)NC3CC3)c(C)o2)cc1", "note": "(centres undefined)", "Potency": "inactive"},
      {"smiles": "O=C1C(n2ccc3ccccc32)c2cc(OC(F)(F)F)ccc2N1Cc1ccc(Cl)nc1", "note": "(centres undefined)", "Potency": "inconclusive: 35.5 µM [inhibitor, partial curve]"},
      {"smiles": "COC(=O)Cn1c(=O)c2c3c(sc2n(Cc2ccccc2)c1=O)CCC3", "Potency": "inconclusive: 44.7 µM [inhibitor, partial curve, poor fit]"},
      {"smiles": "CCCCNC(=S)NCC(c1ccccc1)c1c[nH]c2ccccc12", "note": "(centres undefined)", "Potency": "active: 44.7 µM"},
      {"smiles": "CC(OC(=O)CCNC(=O)OC(C)(C)C)C(=O)c1ccccc1", "note": "(centres undefined)", "Potency": "inconclusive: 3.16 µM [inhibitor, full curve, poor fit]"},
      {"smiles": "O=C(CCCc1ccccc1)Nc1cccc(-c2nnc3n2CCCC3)c1", "Potency": "inactive"},
      {"smiles": "Cc1noc(C)c1CSCc1ccc(Cl)cc1", "Potency": "inconclusive: 100 µM [inhibitor, partial curve, poor fit]"},
      {"smiles": "Cc1ccccc1Nc1nnc(SCC(=O)c2ccc(O)cc2O)s1", "Potency": "inconclusive: 7.08 µM [inhibitor, full curve, poor fit]"},
      {"smiles": "CN(Cc1ccccc1)C(=O)Nc1c(Cl)cccc1Cl", "Potency": "inactive"},
      {"smiles": "CCCN(CCC)CCCNC(=O)Cn1ncc2c3ccccc3n(Cc3ccccc3F)c2c1=O", "Potency": "inconclusive: 141 µM [inhibitor, single point]"},
      {"smiles": "COc1ccc(CCNC(=O)C(=O)c2cn(CC(=O)N3CCCC3)c3ccccc23)cc1", "Potency": "inactive"}
    ]}
  ]
}
